# The supplement of paper PMC3334620
# In all, about 33,000 sequences were measured (“E-score (-0.5 to 0.5)”: median about -0.015, highest 2% from about 0.3 on). The list shows a part of the results.
# Biological target: T1, Abf1 (UniProt P14164)
# T1 sequence: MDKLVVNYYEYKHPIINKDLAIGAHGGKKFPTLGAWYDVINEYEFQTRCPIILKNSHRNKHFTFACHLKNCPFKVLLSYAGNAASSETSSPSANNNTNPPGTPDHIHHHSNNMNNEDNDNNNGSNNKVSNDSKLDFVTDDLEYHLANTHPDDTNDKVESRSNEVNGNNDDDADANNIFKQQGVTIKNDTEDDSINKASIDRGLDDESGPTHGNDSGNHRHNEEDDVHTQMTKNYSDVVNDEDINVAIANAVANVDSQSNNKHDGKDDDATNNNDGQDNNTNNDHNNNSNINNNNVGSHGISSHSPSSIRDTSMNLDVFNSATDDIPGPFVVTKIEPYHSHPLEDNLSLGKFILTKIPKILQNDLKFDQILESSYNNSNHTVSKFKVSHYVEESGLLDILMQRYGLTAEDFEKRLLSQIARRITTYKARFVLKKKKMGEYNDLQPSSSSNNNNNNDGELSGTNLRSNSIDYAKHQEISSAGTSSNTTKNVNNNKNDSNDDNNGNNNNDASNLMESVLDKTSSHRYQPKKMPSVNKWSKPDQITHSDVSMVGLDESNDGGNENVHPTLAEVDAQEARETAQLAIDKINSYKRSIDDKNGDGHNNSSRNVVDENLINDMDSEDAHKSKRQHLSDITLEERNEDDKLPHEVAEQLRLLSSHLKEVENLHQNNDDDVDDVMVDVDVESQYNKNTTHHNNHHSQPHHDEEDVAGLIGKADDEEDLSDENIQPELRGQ
# Assay: PBM E-score (8-mer binding enrichment) (E-score (-0.5 to 0.5)); higher = stronger / more preferred TF binding
# Details: protein concentration: 200 nM; construct: GST-full length
# Summary of the method: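 Universal all-10-mer Agilent arrays, double-stranded by primer extension on fresh or once-stripped slides, were probed with about 100-200 nM GST-tagged yeast transcription factors made by PURExpress. Fluorescent anti-GST detected bound protein, and masliner normalised the scans. E-scores from the Universal PBM Analysis Suite were given to each ungapped eight-base word pooled with its reverse complement.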
row,Sequence,PBM E-score
1,ACCCGTTA,0.108
2,AAATAAGA,0.0435
3,ATATAAGA,0.254
4,CCTCGCTA,-0.0888
5,CTGTTACA,0.0724
6,GCAGGACA,-0.00797
7,CTGTCGAA,-0.0836
8,CAAGGAAC,-0.125
9,AGGCCAAA,-0.1
10,CCGCTCGC,-0.0462
11,CAATGCTA,0.00982
12,CGTTTGCA,0.164
13,AGCTAACG,-0.0182
14,AAGATTCG,0.214
15,GCTTAAGA,0.0407
16,AAAGCAAG,-0.0749
17,AGTGATAA,0.445
18,CCCATGAA,-0.138
19,TCAGGCAA,0.0812
20,ATGCAGAC,0.106
21,ACTTAGAT,0.209
22,GGACATAC,0.0814

row,Sequence,PBM E-score
1,AACAAATG,0.105
2,CCTTTTAC,0.0826
3,CGGAGCTC,-0.138
4,CTTCCAAA,0.051
5,GAAGATCC,-0.194
6,ACTGCCGC,-0.0637
7,AGTAAAAC,-0.0817
8,CGTGCATC,0.203
9,CCCGCGAA,0.0505
10,ATCGTAAG,0.108
11,AGATAACA,0.183
12,GTGCTCTA,0.0515
13,CATAGAAC,-0.203
14,AACGTTTG,-0.141
15,CAGCTAGA,0.0775
16,CCTGACGC,-0.243
17,AAAGGTTG,-0.0789
18,CAAAAATG,-0.0179
19,AGGACAGG,-0.0767
20,AACTAGGA,-0.0176
21,TAATGTCA,0.161
22,GAAGATAC,0.036

row,Sequence,PBM E-score
1,CCCACCCA,-0.164
2,CTATTTGA,0.0272
3,AGAACTTC,0.0209
4,AGTATTAT,0.106
5,AACTATGG,-0.215
6,GCTAGGCC,-0.0546
7,GTTAACGA,0.252
8,ACTGGACG,0.0734
9,CAGCTGGA,0.0243
10,GCACTAAA,0.16
11,GGCGAATA,-0.048
12,ACCAGAGA,-0.0205
13,GGAGTCAA,-0.31
14,AGATTGTC,0.168
15,AACGAACG,0.144
16,CTTGTCTA,-0.0203
17,AAGGCTCC,-0.299
18,CCGACCCC,-0.351
19,CTCGTTAC,0.0169
20,TATGTCGA,0.0949
21,CTCTGCGA,0.0546
22,AAATACGT,0.039

row,Sequence,PBM E-score
1,CTTCTTGA,-0.0179
2,CTTTACAA,-0.021
3,AGATCCCA,-0.0562
4,AGACGCTC,-0.119
5,CTATCACC,0.226
6,CACTGCTA,-0.0546
7,ACGCGGGG,-0.232
8,ACAGTAAC,0.00611
9,GGCACGCA,-0.0922
10,CCCCTAGC,-0.318
11,AGACCTAG,0.00079
12,CAATCCTA,-0.177
13,AGTCGGGG,-0.17
14,AACTAGTG,-0.0264
15,CGTCCGAG,0.211
16,CGTTAGTA,0.248
17,GATAACCA,0.185
18,AACAATCG,-0.029
19,CGGTCTAC,-0.0256
20,GGCTGACC,-0.112
21,ATAGGCGA,0.0309
22,AGGACATG,-0.0301

# Nothing new here: entries from further up.
row,Sequence,PBM E-score
7,ACGCGGGG,-0.232
8,ACAGTAAC,0.00611
9,GGCACGCA,-0.0922
10,CCCCTAGC,-0.318

# Further results:

row,Sequence,PBM E-score
1,TCGAGCAA,0.1
2,TCGGAGAA,-0.0796
3,CGACGAGC,0.125
4,ACTGGGGC,-0.165
5,CCTTAAGC,-0.123
6,GCAGGCGA,-0.0842
7,GACAGGTC,-0.101
8,CGGACTTA,-0.0103
9,CAGCGTTA,0.0527
10,TAAATAAA,0.251
11,AGGTATGC,0.0905
12,AAGGGCGC,-0.126
13,CCGGCCAC,-0.171
14,ACTAAGTA,0.151
15,ATAGTGCG,-0.0459
16,AACACGGA,0.0732
17,CATCTACC,-0.115
18,AACAGACA,-0.0369
19,AGATGCAA,-0.266
20,AACAGCAG,0.0461
21,GACAGACC,-0.275
22,CAATTCCG,0.0515
